The numbers were not newly measured in paper PMC6680770, “Effect of Ticagrelor, a Cytochrome P450 3A4 Inhibitor, on the Pharmacokinetics of Tadalafil in Rats” (Pharmaceutics, 2019), which cites them from elsewhere.

For the series the following is noted: atorvastatin co-administered with ticagrelor; cited from earlier work.

Regarding `CC(C)c1c(C(=O)Nc2ccccc2)c(-c2ccccc2)c(-c2ccc(F)cc2)n1CC[C@@H](O)C[C@@H](O)CC(=O)O` [atorvastatin], the “increase of area under the plasma concentration-time curve from 0 to infinity” value is listed as 36% and the “increase of maximal plasma concentration” value is 23%.
